Patent publication US7728105B2, “Peptides impairing PBX dependent gene regulation” (St. George's Hospital Medical School, priority 2002, dated 2010)
At least one peptide structure holds a part that was inferred or is arguable (an end, a ring closure or a residue). No end group written: not given here.

Columns and labels:
[1] = test system: melanoma (DX3) cell line; test: Proliferation of melanoma (DX3) cell line over seven days; type: cell-based, human; conditions: 20 μg/ml added on day 3, seven days, vs CXP peptide
[2] = test system: malignant cell lines; test: Proliferation of malignant cell lines over seven days in culture; type: cell-based, human; conditions: HXP4(10)
Protocol: A number of cell lines representing different malignancies were grown in culture for seven days, and HXP peptide or the control peptide CXP were added to a final concentration of 20 μg/ml on day 3. The bars represent the fold increase of each cell line over the seven days; the empty, dashed bars indicate the CXP peptide treated cells, whilst the solid bars indicate the addition of HXP peptide. Error bars represent the standard error the mean, and n is the number of experiments performed. The cell lines used were: AML—KG1a; Bladder—HT; Breast—SKBR3; Cervical—HeLa; Colon—Colo41; Gastric—MKN-45; Large cell lung cancer—MES; Melanoma—DX3; Ovarian—1847; Pancreatic—Panc-Tu1; Prostate—LNCAP; Renal—HT1376; Small cell lung cancer—NCI-h510A. The change in the expression of the HOX genes expressed by each cell line was assessed by RT-PCR on RNA extracted from the cells at the end of seven days. ‘HOX gene inactivated’ means that the level of expression of each of the listed HOX genes was at least five fold lower in the HXP peptide treated cells compared to the control. *Analysis not yet complete.
A number of cell lines representing different malignancies were grown in culture for seven days, and HXP peptide or the control peptide CXP were added to a final concentration of 200 μg/ml on day 3. […]

## WYPWMKKHHR [HXP4(10), WYPWMKKHHR]
[1]
  proliferation of melanoma (DX3) cell line: blocks the proliferation
[2]
  proliferation of some malignant cell lines: block the proliferation of some malignant cell lines
